In PubChem BioAssay AID493014 (National Center for Advancing Translational Sciences (NCATS), 2011):
Screen size: about 340,000 compounds; about 170 (0.05%) were called active. The inconclusive results got no clear call from the source; some entries with a clear call stand among them for comparison. Calls come from the whole dose curve; as a rule, active = well fitted inhibition curve with a large enough effect in the signal ratio, with a control signal flat (not every such curve was filed as active); inconclusive = small, poorly fitted or top-dose-only effect, or effect the other way, or a change in a side signal; inactive = flat fitted curve, though single readings scatter; the % refers to the signal ratio. Where the call is inconclusive, the potency comes from a doubtful curve fit.
Potency is the fitted concentration of half-maximal effect.

Assay: qHTS Assay to Find Inhibitors of Chronic Active B-Cell Receptor Signaling;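 for activity change, negative = inhibition: plate controls were basal doxycycline-induced cells for no effect and cells given 10 µM MG132 for full effect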
Settings: ABC-DLBCL IkBa-CBG/CBR reporter, luminescence ratio (green luciferase fused to IkBa over red control in TMD8 lymphoma cells), 4 h; activity change, negative = inhibition: at 46.1 µM (top of the series)
In short: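 Compounds up to 46 uM were incubated four hours with TMD8 cells whose green CBG68 luciferase is fused to IkappaBalpha; red CBR luminescence normalised the signal, and concentration-effect curves were fitted to fusion, red and ratio data.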
In the case of O=C(N/N=C1\SCC(=O)N1CCc1ccccc1)c1cccs1, the activity change, negative = inhibition is reported as “inactive”. With CCOC(=O)c1c(/N=C/C2=C(O)CC(C)(C)CC2=O)sc2c1CCCC2 the activity change, negative = inhibition was inconclusive: 16%. In the case of CCOC(=O)c1c(C)[nH]c(C(=O)COC(=O)C23CC4CC(CC(Cl)(C4)C2)C3)c1C, the activity change, negative = inhibition is reported as inconclusive: -5.94%. For O=C(COc1cccc(-n2cnnn2)c1)Nc1ccc([N+](=O)[O-])cc1, the activity change, negative = inhibition was inconclusive: -1.09%. In the case of O=C(Nc1ccccc1)C1=C[C@@H](C2CC2)C[C@@H](OCCCCO)O1, the activity change, negative = inhibition is reported as inconclusive: 23.9%. With N#Cc1nc(COc2ccccc2)oc1N1CCCCC1 the activity change, negative = inhibition was inconclusive: 0.185%. For Cc1ccc(S(=O)(=O)N2CCC(c3nc4c(nnn4Cc4ccccc4)c(=O)[nH]3)CC2)cc1, the activity change, negative = inhibition was inconclusive: -12.3%. In the case of CC(=O)c1ccc2c(c1)C1C=CCC1C(c1ccc(S(=O)(=O)N3CCOCC3)cc1)N2 (stereo unspecified), the Potency is reported as inconclusive: 0.00461 µM [falling, full curve, poor fit]. In the case of O=C(CN1CCSC1=O)Nc1ccc(N2CCOCC2)cc1, the activity change, negative = inhibition is reported as “inactive”. In the case of Cc1ccccc1Oc1ncnc2sccc12, the Potency is reported as inconclusive: 6.31 µM [falling, single point]. With Cc1c(-n2cccc2C=O)cccc1[N+](=O)[O-] the activity change, negative = inhibition was inconclusive: 3.66%. In the case of O=C(Cc1ccc(Cl)cc1)NCCS(=O)(=O)N1CCN(c2ccccc2F)CC1, the Potency is reported as inconclusive: 25.9 µM [falling, partial curve, poor fit]. For CCN(CC)Cc1c(O)ccc2c(=O)c(-c3ccc4c(c3)OCCO4)coc12, the activity change, negative = inhibition was inconclusive: -11.8%. With O=C(Nc1cccc2nsnc12)c1ccc2c(c1)OCCO2 the activity change, negative = inhibition was inconclusive: -15.4%. With CC1(C)Cc2c(sc3nc(SCC(=O)O)[nH]c(=O)c23)CO1 the activity change, negative = inhibition was inconclusive: 1.87%. In the case of S=c1sc2c(Cl)ncnc2n1-c1ccccc1, the Potency is reported as inconclusive: 22.4 µM [falling, single point]. For c1csc(-c2ncc3ccccn23)c1, the activity change, negative = inhibition was “inactive”. With c1ccc(COC2CCCN(Cc3nc(-c4cnccn4)no3)C2)nc1 (stereo unspecified) the activity change, negative = inhibition was “inactive”. With COc1ccc(C2c3ccc(O)cc3Oc3ncn(CCCO)c(=N)c32)cc1 (stereo unspecified) the Potency was inconclusive: 12.6 µM [falling, partial curve, poor fit]. For CC(C)c1nnc(NC(=O)c2cccs2)s1, the Potency was inconclusive: 23.1 µM [falling, single point]. For Cc1cc(NC(=O)CCC(=O)N(c2ccccc2)C(C(=O)NC2CCCC2)c2ccncc2)no1 (stereo unspecified), the activity change, negative = inhibition was inconclusive: 1.24%. With COc1cc(/C=N/N(CCO)C2=NS(=O)(=O)c3ccccc32)cc(OC)c1OC the activity change, negative = inhibition was inconclusive: 2.47%. With Cc1[nH]n(-c2ccccc2)c(=O)c1Sc1ccc(Cl)cc1 the activity change, negative = inhibition was inconclusive: 12.5%. With CC1CC(=O)Nc2ccccc2N1S(=O)(=O)c1cccc(Cl)c1 (stereo unspecified) the activity change, negative = inhibition was inconclusive: 9.52%. With C=CCNC(=O)c1csc(-c2ccccc2)n1 the activity change, negative = inhibition was inconclusive: 6%. For Cc1cc(Nc2c(C)n(C)n(-c3ccccc3)c2=O)n2c(nc3cc(F)c(F)cc32)c1C#N, the activity change, negative = inhibition was inconclusive: -40.7%. For COc1ccccc1N(C(=O)c1ccco1)C(C(=O)NC1CCCC1)c1ccncc1 (stereo unspecified), the Potency was inconclusive: 35.5 µM [falling, single point]. With Cc1ccc(F)c([C@H]2C3C=CCC(c4ccccc4)C3C(=O)N2Cc2ccccc2)c1 (stereo partly specified) the activity change, negative = inhibition was inconclusive: 0.4%. For CSCCC(NC(=O)c1ccccc1Cl)C(=O)N1CCN(C(c2ccccc2)c2ccccc2)CC1 (stereo unspecified), the activity change, negative = inhibition was inconclusive: -1.6%. With O=C(c1cc(F)c(F)cc1Cl)N1CCN(c2ccc([N+](=O)[O-])c3ncccc23)CC1 the activity change, negative = inhibition was “inactive”. In the case of CCN(CC)c1ccc(/C=C/c2ccc3ccc(OC)cc3[n+]2CC)cc1, the activity change, negative = inhibition is reported as inconclusive: 4.44%. For O=C(C[C@H]1C/C=C\C[C@H](NC(=O)OCC2c3ccccc3-c3ccccc32)C(=O)O[C@H](c2ccccc2)CNC1=O)N[C@H](CO)Cc1ccccc1, the activity change, negative = inhibition was inconclusive: -7.02%. For O=C1OCCC1Sc1nnnn1-c1ccc(Cl)cc1 (stereo unspecified), the Potency was inconclusive: 35.5 µM [rising, single point]. In the case of C=CCn1c(SCC(=O)Nc2ccc(OC)cc2)nnc1-c1cnccn1, the activity change, negative = inhibition is reported as “inactive”. With COc1cc(/C=N/Nc2ccc(Cl)c(C(=O)O)c2)ccc1OC(=O)c1ccco1 the Potency was inconclusive: 35.5 µM [falling, single point]. In the case of N#C/C(=C\c1ccc(OCc2cccc(C(=O)O)c2)cc1)C(=O)NCc1ccco1, the Potency is reported as inconclusive: 28.2 µM [falling, partial curve]. For CN(C)CCCNC(=O)C[C@H]1C[C@H](C(=O)N2CCOCC2)[C@@]2(C)c3[nH]c4cc(-c5ccco5)ccc4c3CCN2C1=O, the activity change, negative = inhibition was inconclusive: 3.38%. With Cc1ccc(S(=O)(=O)CCC(=O)Nc2nc(-c3ccncc3)cs2)cc1 the activity change, negative = inhibition was inconclusive: 1.61%. With Cc1sc2nc(CN3CCOCC3)nc(NS(=O)(=O)c3cc(Cl)ccc3Cl)c2c1C the activity change, negative = inhibition was inconclusive: 6.66%. For CNc1cc(N2CCCCCC2)ccc1[N+](=O)[O-], the activity change, negative = inhibition was inconclusive: 4.98%. For Cc1ccc(CN2CCN(/N=C/c3ccc(Cl)c([N+](=O)[O-])c3)CC2)cc1, the activity change, negative = inhibition was inconclusive: 15.8%. For COc1ccc(NC(=O)C(Cc2ccccc2)n2cccc2)cc1 (stereo unspecified), the activity change, negative = inhibition was inconclusive: 0.727%. With N#Cc1ccc(/C=N/NC(=S)Nc2ccc(S(=O)(=O)N3CCOCC3)cc2)cc1 the activity change, negative = inhibition was “inactive”. In the case of O=C(O)CCc1n[nH]c(=S)[nH]c1=O, the activity change, negative = inhibition is reported as inconclusive: 2.84%. In the case of Cc1cc(SCC(=O)N/N=C/c2ccc(O)c(O)c2)nc2ccccc12, the activity change, negative = inhibition is reported as inconclusive: -18%. With Cc1nn(-c2ccccc2)c(Cl)c1C(=O)NCCCCNC(=O)c1c(C)nn(-c2ccccc2)c1Cl the activity change, negative = inhibition was inconclusive: 8.19%. For CC(C)NC(=O)[C@]1(C)CCC[C@@]2(C)C3CC[C@@]4(C)C[C@]3(CCC21)CC4=O (stereo partly specified), the Potency was inconclusive: 16.4 µM [falling, single point]. In the case of CC(C)NC(=O)/C(C#N)=C/c1ccc2c(c1)OCCO2, the activity change, negative = inhibition is reported as inconclusive: -17.5%. With CC(C)(C)NC(=O)NC(=O)COC(=O)Cn1c(C(F)(F)F)nc2ccccc21 the Potency was inconclusive: 0.092 µM [falling, full curve, poor fit]. In the case of COc1ccc(OCC(=O)N2CCN(C(=O)c3cccc4ccccc34)CC2)cc1, the activity change, negative = inhibition is reported as inconclusive: -10.6%. In the case of COc1ccc(/C=N/NC(=O)c2[nH]c3ccc(Cl)cc3c2-c2ccccc2)c(C(=O)O)c1OC, the activity change, negative = inhibition is reported as inconclusive: -17.7%. In the case of O=C1c2nc3cc(-c4ccco4)[nH]n3c(=O)c2CN1Cc1ccccc1, the activity change, negative = inhibition is reported as “inactive”. For COCCCNC(=O)CSc1nc2sc(C(=O)OC)c(C)c2c(=O)n1N, the Potency was inconclusive: 2.82 µM [falling, partial curve, poor fit]. For O=C(NNS(=O)(=O)c1ccc(Cl)cc1)NC1CCCCC1, the activity change, negative = inhibition was “inactive”. In the case of O=C(Nc1ccccn1)C1CCN(S(=O)(=O)c2ccc3ccccc3c2)CC1, the activity change, negative = inhibition is reported as inconclusive: 12.4%. In the case of COc1ccc(OC)c(NC(=O)CSc2nnc(-c3ccco3)n2-c2ccc(C(=O)O)cc2)c1, the activity change, negative = inhibition is reported as inconclusive: 0.232%. For CCC(c1ccccc1)c1nc(-c2cccnc2)no1 (stereo unspecified), the activity change, negative = inhibition was inconclusive: 1.61%. In the case of COc1ccc(S(=O)(=O)N2CCC(C(=O)NCCCc3ccccc3)CC2)cc1, the activity change, negative = inhibition is reported as “inactive”. For COc1cccc(CC(=O)OCC(=O)NCC(=O)Nc2cccc(C)c2C)c1, the activity change, negative = inhibition was inconclusive: 3.08%. For CC(C)(C)C(=O)[C@@H]1[C@@H]2C(=O)N(C3CCCCC3)C(=O)[C@@H]2[C@H]2c3ccccc3C=CN12, the Potency was inconclusive: 18.4 µM [falling, partial curve]. With Cc1sc2nc(SCC(=O)NCc3ccco3)n(-c3ccccc3)c(=O)c2c1C the activity change, negative = inhibition was inconclusive: 3.67%. For CC(C)[C@H](NC(=O)NC1CCN(Cc2ccccc2)CC1)C(=O)O, the activity change, negative = inhibition was inconclusive: -0.558%. In the case of COc1ccc(NS(=O)(=O)c2ccc(NC(=O)c3cnn4c(C(F)F)cc(-c5ccc(C)cc5)nc34)cc2)cc1, the activity change, negative = inhibition is reported as “inactive”. For Cc1nc2scc(C)n2c(=O)c1S(=O)(=O)Nc1ccc(N2CCN(S(C)(=O)=O)CC2)cc1, the activity change, negative = inhibition was “inactive”. For C=CCNC(=S)NNC(=O)c1cc(-c2cccnc2)nc2ccccc12, the activity change, negative = inhibition was inconclusive: -9.46%. In the case of COc1ccc(NC(=S)Nc2cc(-c3ccccc3)[nH]n2)cc1Cl, the Potency is reported as inconclusive: 23.1 µM [falling, single point]. With Cc1ccc(NC(=O)Nc2cc(C)on2)cc1 the activity change, negative = inhibition was inconclusive: 12.1%. With COc1ccc(C(C(=O)NC2CCCC2)N(Cc2ccccc2)C(=O)CNC(=O)c2ccco2)cc1 (stereo unspecified) the activity change, negative = inhibition was inconclusive: 13.3%. For O=C(C[n+]1ccccc1)N/N=C/c1c(F)cccc1Cl, the activity change, negative = inhibition was “inactive”. With CCOC(=O)/C=C/C(=O)Nc1cccc([N+](=O)[O-])c1 the Potency was inconclusive: 32.6 µM [rising, partial curve, poor fit]. In the case of Cc1ccc(/C=C2\SC(=S)N(CCC(=O)NNS(=O)(=O)c3ccc(C)cc3)C2=O)cc1, the Potency is reported as inconclusive: 20.6 µM [falling, partial curve]. With COc1ccc(OC)c(C2CC(=O)N3CN(c4cccc(Cl)c4C)CSC3=C2C#N)c1 (stereo unspecified) the activity change, negative = inhibition was inconclusive: 8.61%. For COc1cc(C2C(C#N)=C(N)Oc3cc(C)n(CCN4CCOCC4)c(=O)c32)cc(OC)c1OC (stereo unspecified), the activity change, negative = inhibition was inconclusive: 1.53%. In the case of N#C/C(=C\c1cccc([N+](=O)[O-])c1)c1ccccn1, the Potency is reported as inconclusive: 35.5 µM [falling, single point]. With Cc1ccc(C(=O)NNc2ncnc3ccccc23)cc1 the Potency was inconclusive: 6.31 µM [falling, partial curve]. In the case of O=C(c1cc(Br)ccc1O)N1CCN(S(=O)(=O)Cc2ccccc2)CC1, the activity change, negative = inhibition is reported as inconclusive: -5.75%.
